In the supplement of paper PMC10338343:
± gives the standard deviation. The entries are a selection whose mix differs from that of the whole data set. The uncertainty is large for many entries.

The sequences below were run on MIWI (PIWIL1) piRISC loaded with L1MC piRNA (30 nt) (assay: pre-steady-state target cleavage rate (min^-1); MIWI and MILI are mouse PIWI proteins and EfPiwi is from a freshwater sponge; tags in brackets are library labels; higher = faster piRNA-guided slicing of the target). Conditions: guide: L1MC piRNA 5'p-UAACUAAAUACUAUGCAAGCUGUAGGUCCU; auxiliary factor: none (no GTSF1).
In short: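 The method was Cleave-'n-Seq, in which uncleaved targets from a transcribed, DNA-blocked target RNA library were sequenced after exposure to active affinity-purified piRISC carrying one synthetic guide, with or without GTSF1 partner protein. Reactions contained 0.1 nM library, 1 nM piRISC and, where present, 500 nM GTSF1 in HEPES–potassium acetate buffer at 33 °C for 0–8 or 0–960 min. Reads were normalised to depth and to weakly complementary targets, three trials were pooled, and k3 was capped at 0.0001 min^-1. The pre-steady-state cleavage rate came from a burst-and-steady-state fit.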

| Sequence | pre-steady-state target cleavage rate |
| --- | --- |
| UCGACGAACAGCUUGCAUAGUAUUUAGUUA | 0.0836 ± 0.015 |
| UCCACCUACACCAUGCAUAGUAUUUAGUUA | 0.0161 ± 0.003 |
| AGGUGGUACAGCUUGCAUAGUAUUUAGUAA | 0.04 ± 0.0068 |
| UGGACCUACAGCUUGCAUAGUAUUUAGUCA | 0.0559 ± 0.011 |
| UCGAGCUACAGCUUGCUUAGUAUUUAGUUA | 0.0376 ± 0.0079 |
| AGGACCUACAGCUUGCAUGGUAUUUAGUUA | 0.0615 ± 0.012 |
| UCCUGGUACAGCUUGCAUACAUUUUAGUUA | 0.000631 ± 0.0086 |
| AGGACCUACAGGAAGCAUAGUAUUUUCAAA | 0.000658 ± 0.0095 |
| UGGACCUACAGCUUCCAUAGUAUUUACUUA | 0.000429 ± 0.0071 |
| UCCUGGAUCAGCUUGGAUAGUAUUUAGUUA | 0.0476 ± 0.0092 |
| ACCUCCUACAGCUUGCAUAGUAUUUAGUUA | 0.0784 ± 0.012 |
| UCGACCUACAGCUUGCAUAGUAUUCUAGUUA | 0.0316 ± 0.0072 |
| UGGACCUACAGCUUGCAUACAAUUUACAAA | 0.000229 ± 0.013 |
| UGCUCCUACAGCUUGCAUAGUAUUUAGAAA | 0.00714 ± 0.0022 |
| UGGACCUACAGCUUGGUAAGUAUUUAGAAA | 0.000511 ± 0.0069 |
| UGGACCUACACCUUGGAUAGUAUUUAGUUA | 0.0418 ± 0.0063 |
| UCCACCUAGUCCUUGCAUAGUAUUUAGUAA | 0.00921 ± 0.0015 |
| CGGACCUACAGCUUGCAUAGUAUUUAGUUA | 0.06 ± 0.0088 |
| AGGACCACAGCUUGCAUAGUAUUUAGUUA | 0.0967 ± 0.019 |
| UCGACCUCACAGCUUGCAUAGUAUUUAGUUA | 0.0855 ± 0.017 |

No new results follow: an excerpt of the list.

| Sequence | pre-steady-state target cleavage rate |
| --- | --- |
| UCGAGCUACAGCUUGCUUAGUAUUUAGUUA | 0.0376 ± 0.0079 |
| AGGACCUACAGCUUGCAUGGUAUUUAGUUA | 0.0615 ± 0.012 |
| UCCUGGUACAGCUUGCAUACAUUUUAGUUA | 0.000631 ± 0.0086 |
| AGGACCUACAGGAAGCAUAGUAUUUUCAAA | 0.000658 ± 0.0095 |
| UGGACCUACAGCUUCCAUAGUAUUUACUUA | 0.000429 ± 0.0071 |
| UCCUGGAUCAGCUUGGAUAGUAUUUAGUUA | 0.0476 ± 0.0092 |
| ACCUCCUACAGCUUGCAUAGUAUUUAGUUA | 0.0784 ± 0.012 |
| UCGACCUACAGCUUGCAUAGUAUUCUAGUUA | 0.0316 ± 0.0072 |
| UGGACCUACAGCUUGCAUACAAUUUACAAA | 0.000229 ± 0.013 |

The list goes on.

| Sequence | pre-steady-state target cleavage rate |
| --- | --- |
| UGGACCUACAGCAUGCAUAGUAUUUAGUAA | 0.0303 ± 0.0065 |
| AGGACCUGCAGCUUGCAUAGUAUUUAGUUA | 0.0689 ± 0.014 |
| UCGUGCUACAGCUUGCAUAGUAUUUAGUAA | 0.0286 ± 0.0054 |
| AGGAGCUACAGCUUGGAUAGUAUUUAGUUA | 0.0558 ± 0.0094 |
| UGGACCUACAGCUUGCUAUGUAUUUACAAA | 0.000644 ± 0.0058 |
| AGGACCUCCAGCUUGCAUAGUAUUUAGUUA | 0.0926 ± 0.018 |
| UCCUGGAUGUGCUUGAUAGUAUUUAGUUA | 0.00142 ± 0.0048 |
| UCGACCUACAGCUUCCAUAGUAAUUAGUUA | 0.00134 ± 0.0044 |
| UGGACCUACAGCUUGCAUAGUAUUUAGUUC [g2:g29:cont:t1C] | 0.0625 ± 0.012 |
| UCGUCCUACAGCAUGCAUAGUAUUUAGUUA | 0.0282 ± 0.0049 |
| AGGACCUACAGCUUGCAUUGUAUUUAGUUA | 0.0656 ± 0.015 |
| UCCACUCUACAGCUUGCAUAGUAUUUAGUUA | 0.0688 ± 0.012 |
| AGGACCUACAGCAACCAUAGUAUUUAGUUA | 0.00122 ± 0.004 |
| UCCUGGAUGUGCUUGCAAAGAAUUUAGUUA | 0.00226 ± 0.0031 |
| UCGACCUAACAGCUUGCAUAGUAUUUAGUUA | 0.0849 ± 0.017 |
| UCGACCUACAGCUUGCAUAGUAUUAACAAA | 0.00227 ± 0.0028 |
| UCCUGGAACAGCUUGCAUAGUAUCUAGUUA | 0.0563 ± 0.011 |
| UGGAGCCUACAGCUUGCAUAGUAUUUAGUUA | 0.0757 ± 0.013 |
| AGGACCUUCAGCUUGGAUAGUAUUUAGUUA | 0.0657 ± 0.012 |
| UCCUGGAUGUCGAACGUUAGUUUUAGUUA | 0.000174 ± 0.022 |
